These are yes or no findings as the source states them, for the method shown. In cells and extracts the contact can be indirect. Binding calls can cover weak binding; strength is not graded here. Where a sequence is shown, tags or fusion partners need not be part of it.
Tests used:
Assay in all cases: pull-down; GST fusion or GST on glutathione agarose resin, induced His-OsSAP5 added, 2 h at 4°C, 25 mM Tris-HCl pH 8.0, 150 mM NaCl, 1/2,000 NP-40, 1/20 glycerol; blots with anti-His and anti-GST
[1] = molecular target: GST-OsGF14b (rice (Oryza sativa))
[2] = molecular target: GST-OsGF14d (rice (Oryza sativa))
[3] = molecular target: GST-OsGF14e (rice (Oryza sativa))

Measured: binding

B1: His-OsSAP5 (protein, UniProt Q6H754 1-154)
chain: MAEEQRWQEGCHRLCANNCGFFGSPATLDLCSKCYRDRQGRESTAPVVVAAAASACPATHPSSPSSSSCPAFLPSSTAAEAGVVVAAVAKASRCASCRKRVGLTGFACRCGGTFCGAHRYPERHACGFDFKAAGRDAIARANPLIKGDKLKDKI
binds: [1] | [2] | [3]

From publication PMC12454907
